These are yes or no findings as the source states them, for the method shown. Binding seen in cells or lysates may run through a third protein. Some binding calls cover weakened binding; strength is not graded here.
Biological target: ribosomal protein S5b (D. melanogaster (endogenous in ovaries)) (UniProt Q9VFE4)
Test: co-IP; antisera to RpS5a, RpS5b or non-immune IgG on Dynabeads; ovary lysate in 50 mM HEPES pH 7.5, 100 mM KCl, 12 mM MgCl2, 1% NP-40, 1 mM dithiothreitol, RNase inhibitor, cycloheximide; 1.5 h at 4 °C; Western blot

Sequences of proteins named here, by UniProt entry; tags and fusion partners are left off.
UniProt P29327: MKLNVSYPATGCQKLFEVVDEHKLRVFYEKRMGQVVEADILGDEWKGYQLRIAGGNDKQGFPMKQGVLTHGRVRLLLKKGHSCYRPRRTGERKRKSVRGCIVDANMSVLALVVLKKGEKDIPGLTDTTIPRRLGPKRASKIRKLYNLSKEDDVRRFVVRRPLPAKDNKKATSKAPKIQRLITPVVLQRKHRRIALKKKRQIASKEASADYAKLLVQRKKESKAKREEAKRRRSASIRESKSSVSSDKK

For “ribosomal protein RpS6 (from UniProt P29327 1-248)”, the binding was “binds”.

From publication PMC6760144
